Experimental data published in the supplement of paper PMC10849652.
This is one part of the list.

Protein sequences, listed by entry. Tags and fused reporters are not part of them. Lines headed by an entry give the natural chain unless they say otherwise; changes in a name come on top.
UniProt Q93050, whole entry, looked up: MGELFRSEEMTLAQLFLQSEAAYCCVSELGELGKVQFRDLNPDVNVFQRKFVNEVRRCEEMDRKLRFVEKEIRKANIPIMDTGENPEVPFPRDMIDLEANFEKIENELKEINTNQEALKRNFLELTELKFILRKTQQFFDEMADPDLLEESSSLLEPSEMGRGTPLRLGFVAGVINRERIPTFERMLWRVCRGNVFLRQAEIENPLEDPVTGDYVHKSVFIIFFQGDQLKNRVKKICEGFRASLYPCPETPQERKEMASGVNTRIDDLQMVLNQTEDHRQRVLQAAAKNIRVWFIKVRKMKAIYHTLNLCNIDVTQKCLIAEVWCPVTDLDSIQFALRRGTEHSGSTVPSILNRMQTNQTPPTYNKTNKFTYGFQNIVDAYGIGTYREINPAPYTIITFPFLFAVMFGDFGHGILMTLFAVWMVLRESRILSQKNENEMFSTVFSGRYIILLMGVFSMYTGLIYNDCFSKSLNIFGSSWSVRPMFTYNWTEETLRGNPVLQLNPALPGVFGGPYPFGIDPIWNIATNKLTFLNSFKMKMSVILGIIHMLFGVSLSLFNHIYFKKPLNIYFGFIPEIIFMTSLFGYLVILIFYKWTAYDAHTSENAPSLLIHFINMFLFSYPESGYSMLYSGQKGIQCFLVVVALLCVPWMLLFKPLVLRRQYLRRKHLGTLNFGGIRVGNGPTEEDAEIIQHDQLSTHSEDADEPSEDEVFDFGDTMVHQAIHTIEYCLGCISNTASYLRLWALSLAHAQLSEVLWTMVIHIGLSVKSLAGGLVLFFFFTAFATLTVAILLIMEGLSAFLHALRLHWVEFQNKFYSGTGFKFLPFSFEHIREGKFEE
UniProt P18847: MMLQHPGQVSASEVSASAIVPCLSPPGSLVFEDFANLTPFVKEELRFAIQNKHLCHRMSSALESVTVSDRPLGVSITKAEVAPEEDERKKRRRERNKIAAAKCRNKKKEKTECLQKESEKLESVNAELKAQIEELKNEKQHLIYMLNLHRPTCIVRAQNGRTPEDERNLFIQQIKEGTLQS
UniProt P56378: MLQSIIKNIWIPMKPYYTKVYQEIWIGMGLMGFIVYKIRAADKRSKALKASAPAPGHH
UniProt Q9UH62: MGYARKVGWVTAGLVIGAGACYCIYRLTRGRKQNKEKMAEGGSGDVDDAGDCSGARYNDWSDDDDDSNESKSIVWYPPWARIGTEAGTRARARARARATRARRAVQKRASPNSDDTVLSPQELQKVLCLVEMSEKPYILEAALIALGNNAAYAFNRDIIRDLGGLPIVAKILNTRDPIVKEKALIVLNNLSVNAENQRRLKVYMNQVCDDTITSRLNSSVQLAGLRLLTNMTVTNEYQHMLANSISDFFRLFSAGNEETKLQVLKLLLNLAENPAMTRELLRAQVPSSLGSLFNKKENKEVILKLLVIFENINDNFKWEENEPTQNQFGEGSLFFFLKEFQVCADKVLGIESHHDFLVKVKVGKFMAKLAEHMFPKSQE
UniProt O75915: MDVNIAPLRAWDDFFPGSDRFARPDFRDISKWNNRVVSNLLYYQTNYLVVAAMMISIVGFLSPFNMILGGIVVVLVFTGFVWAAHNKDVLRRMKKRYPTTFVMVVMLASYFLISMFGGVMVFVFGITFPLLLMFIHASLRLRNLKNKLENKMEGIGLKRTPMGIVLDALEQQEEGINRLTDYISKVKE
UniProt O75964: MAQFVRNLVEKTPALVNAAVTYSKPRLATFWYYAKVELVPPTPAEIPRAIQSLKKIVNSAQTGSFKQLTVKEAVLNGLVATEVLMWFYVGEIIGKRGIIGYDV
UniProt P30049: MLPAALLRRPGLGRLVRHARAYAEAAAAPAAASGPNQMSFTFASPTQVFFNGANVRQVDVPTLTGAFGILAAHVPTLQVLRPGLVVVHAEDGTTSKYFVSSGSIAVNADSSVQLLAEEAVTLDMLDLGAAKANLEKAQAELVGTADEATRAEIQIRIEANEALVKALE
UniProt Q9Y6H3: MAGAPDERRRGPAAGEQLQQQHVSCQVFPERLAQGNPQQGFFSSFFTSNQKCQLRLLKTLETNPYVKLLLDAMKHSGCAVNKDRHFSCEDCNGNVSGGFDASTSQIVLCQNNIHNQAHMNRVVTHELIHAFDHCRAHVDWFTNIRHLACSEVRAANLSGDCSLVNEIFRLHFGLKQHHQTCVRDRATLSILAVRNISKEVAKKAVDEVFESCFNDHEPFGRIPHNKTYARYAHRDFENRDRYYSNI
UniProt Q9ULH1: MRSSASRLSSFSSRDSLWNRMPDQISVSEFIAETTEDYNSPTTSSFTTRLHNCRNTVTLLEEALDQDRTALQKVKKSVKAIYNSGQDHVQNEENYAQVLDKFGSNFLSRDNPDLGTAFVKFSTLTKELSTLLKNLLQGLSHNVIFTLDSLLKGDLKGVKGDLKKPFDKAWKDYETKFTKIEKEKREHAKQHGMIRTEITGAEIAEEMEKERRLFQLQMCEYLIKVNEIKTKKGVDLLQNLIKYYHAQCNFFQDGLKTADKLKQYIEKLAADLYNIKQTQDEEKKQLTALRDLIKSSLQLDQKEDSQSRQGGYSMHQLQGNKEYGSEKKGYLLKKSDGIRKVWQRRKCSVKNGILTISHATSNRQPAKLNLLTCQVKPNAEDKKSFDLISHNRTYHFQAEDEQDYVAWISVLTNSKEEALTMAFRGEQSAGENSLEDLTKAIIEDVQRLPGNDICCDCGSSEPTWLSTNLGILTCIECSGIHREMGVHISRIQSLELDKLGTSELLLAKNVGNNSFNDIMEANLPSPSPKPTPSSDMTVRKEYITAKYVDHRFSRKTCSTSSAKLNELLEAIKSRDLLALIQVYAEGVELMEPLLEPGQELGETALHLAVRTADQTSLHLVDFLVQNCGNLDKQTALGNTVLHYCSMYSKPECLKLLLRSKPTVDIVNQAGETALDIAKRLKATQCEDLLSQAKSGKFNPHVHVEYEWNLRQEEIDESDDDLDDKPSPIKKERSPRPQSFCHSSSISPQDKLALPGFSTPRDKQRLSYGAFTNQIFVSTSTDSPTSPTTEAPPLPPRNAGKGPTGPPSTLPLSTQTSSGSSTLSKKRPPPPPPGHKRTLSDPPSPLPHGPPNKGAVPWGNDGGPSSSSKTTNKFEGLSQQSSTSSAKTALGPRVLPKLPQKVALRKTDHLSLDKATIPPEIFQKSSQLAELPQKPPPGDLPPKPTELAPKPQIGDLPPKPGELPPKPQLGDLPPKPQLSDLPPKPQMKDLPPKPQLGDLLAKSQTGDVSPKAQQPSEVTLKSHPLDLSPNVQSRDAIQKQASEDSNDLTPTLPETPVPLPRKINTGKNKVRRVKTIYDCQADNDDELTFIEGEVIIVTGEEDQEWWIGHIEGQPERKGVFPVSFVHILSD
UniProt O75947: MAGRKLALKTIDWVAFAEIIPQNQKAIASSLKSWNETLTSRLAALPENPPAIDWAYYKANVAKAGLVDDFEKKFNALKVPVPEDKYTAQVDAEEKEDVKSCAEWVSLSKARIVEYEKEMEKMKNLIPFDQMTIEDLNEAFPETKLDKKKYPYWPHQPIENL
UniProt Q9Y2Y0: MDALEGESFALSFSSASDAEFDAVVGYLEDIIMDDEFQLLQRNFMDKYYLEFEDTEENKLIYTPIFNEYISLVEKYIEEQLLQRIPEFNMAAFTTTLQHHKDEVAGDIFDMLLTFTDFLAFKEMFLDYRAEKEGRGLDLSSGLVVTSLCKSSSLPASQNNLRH
UniProt Q6ZNE5, whole entry, looked up: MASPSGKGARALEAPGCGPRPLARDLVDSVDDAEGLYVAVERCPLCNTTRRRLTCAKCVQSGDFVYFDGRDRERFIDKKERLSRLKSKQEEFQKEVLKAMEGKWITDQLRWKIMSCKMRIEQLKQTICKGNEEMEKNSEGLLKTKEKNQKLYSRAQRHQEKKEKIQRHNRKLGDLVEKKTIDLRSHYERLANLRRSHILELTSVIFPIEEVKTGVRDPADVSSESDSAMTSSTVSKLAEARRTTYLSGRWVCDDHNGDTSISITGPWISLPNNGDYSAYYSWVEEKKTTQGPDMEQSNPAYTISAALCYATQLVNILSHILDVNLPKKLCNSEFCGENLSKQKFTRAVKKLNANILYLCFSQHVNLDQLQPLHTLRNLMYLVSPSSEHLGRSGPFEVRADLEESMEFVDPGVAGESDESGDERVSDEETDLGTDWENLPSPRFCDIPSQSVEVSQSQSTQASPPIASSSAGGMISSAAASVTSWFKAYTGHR
UniProt Q8IUR7, whole entry, looked up: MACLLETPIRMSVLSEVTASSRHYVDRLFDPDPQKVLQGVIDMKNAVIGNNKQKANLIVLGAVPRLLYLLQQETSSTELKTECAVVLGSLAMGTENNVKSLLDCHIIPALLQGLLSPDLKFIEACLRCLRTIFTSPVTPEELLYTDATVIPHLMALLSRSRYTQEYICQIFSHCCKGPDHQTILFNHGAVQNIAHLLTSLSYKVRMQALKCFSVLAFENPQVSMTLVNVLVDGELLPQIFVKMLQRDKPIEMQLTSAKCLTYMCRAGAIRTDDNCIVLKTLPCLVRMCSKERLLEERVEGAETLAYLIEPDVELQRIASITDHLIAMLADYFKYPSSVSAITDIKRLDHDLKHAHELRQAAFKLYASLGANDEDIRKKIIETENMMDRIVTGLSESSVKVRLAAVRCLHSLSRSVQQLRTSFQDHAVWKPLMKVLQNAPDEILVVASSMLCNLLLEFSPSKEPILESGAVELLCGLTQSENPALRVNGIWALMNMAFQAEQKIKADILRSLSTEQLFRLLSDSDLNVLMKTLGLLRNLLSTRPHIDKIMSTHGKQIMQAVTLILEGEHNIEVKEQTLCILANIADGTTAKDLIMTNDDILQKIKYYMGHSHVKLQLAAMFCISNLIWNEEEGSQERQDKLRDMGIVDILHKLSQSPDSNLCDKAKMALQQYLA
UniProt P40617: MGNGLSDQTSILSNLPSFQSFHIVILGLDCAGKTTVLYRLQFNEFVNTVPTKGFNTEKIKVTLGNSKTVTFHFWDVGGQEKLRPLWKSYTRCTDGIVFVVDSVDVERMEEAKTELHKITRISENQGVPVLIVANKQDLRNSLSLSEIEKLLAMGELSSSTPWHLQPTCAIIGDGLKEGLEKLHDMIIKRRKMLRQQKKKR
UniProt Q9NWL6: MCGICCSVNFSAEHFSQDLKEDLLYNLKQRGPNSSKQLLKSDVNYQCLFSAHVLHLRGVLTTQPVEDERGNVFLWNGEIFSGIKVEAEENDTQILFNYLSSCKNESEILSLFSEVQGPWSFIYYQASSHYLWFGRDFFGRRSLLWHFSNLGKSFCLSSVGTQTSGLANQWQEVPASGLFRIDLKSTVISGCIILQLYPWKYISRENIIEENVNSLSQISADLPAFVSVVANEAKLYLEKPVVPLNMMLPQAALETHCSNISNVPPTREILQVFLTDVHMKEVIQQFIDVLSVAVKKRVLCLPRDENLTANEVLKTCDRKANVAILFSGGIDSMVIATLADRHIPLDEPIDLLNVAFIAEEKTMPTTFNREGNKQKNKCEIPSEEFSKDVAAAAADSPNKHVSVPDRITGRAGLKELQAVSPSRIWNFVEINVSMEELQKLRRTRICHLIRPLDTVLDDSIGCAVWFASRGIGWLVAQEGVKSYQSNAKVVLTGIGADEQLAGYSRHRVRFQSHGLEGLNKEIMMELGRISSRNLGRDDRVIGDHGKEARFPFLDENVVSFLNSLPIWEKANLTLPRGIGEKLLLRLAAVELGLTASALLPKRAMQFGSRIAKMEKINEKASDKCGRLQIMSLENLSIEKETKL
UniProt O95352: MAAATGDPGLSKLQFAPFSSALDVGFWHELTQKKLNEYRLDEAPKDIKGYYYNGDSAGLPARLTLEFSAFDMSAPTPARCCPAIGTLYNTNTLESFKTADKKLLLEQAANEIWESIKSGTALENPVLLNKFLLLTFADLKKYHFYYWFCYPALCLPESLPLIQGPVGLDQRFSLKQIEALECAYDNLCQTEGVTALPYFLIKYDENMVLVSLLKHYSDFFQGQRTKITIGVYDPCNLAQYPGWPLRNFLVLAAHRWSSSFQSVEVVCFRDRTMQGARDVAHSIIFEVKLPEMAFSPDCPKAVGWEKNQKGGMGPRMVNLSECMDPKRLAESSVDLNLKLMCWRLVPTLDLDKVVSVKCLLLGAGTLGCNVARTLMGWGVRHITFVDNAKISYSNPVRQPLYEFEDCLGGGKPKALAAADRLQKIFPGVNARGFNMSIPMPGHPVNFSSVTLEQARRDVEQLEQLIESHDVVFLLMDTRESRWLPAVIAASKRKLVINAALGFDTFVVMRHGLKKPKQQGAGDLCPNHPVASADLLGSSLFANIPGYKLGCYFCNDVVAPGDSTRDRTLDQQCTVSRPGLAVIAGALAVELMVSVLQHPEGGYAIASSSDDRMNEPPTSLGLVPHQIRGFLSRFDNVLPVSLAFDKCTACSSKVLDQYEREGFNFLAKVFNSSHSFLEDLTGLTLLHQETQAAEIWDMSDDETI
UniProt P48047: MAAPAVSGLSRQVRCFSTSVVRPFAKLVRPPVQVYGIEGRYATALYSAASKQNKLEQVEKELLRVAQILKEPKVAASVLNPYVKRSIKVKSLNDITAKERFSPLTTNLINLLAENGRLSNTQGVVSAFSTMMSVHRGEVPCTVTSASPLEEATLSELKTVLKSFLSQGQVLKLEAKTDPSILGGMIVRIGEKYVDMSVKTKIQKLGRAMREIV

Tests used:
Assay in all cases: log2 fold change, soluble protein after heating vs DMSO (PISA); higher = thermal stabilisation; K562 cells, 10 uM, 30 min; active = over 0.2 and 3.5 SD of the protein, either way, in both replicates (recomputed)
[1] = compound: C1=CC=C(C=C1)[C@H](COC2=CC3=C(C=C2)NC(=O)N3)NC(=O)C4=CC=CN(C4=O)CC5=CC(=C(C=C5)F)F
Method in brief: (§1)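 K562 cells at 2×10^6 cells/mL were exposed to 10 μM compound for 30 min, then aliquots were heated for 3 min across 48°C-58°C, pooled, and extracted in PBS containing 0.5% NP-40 at 4°C. The supernatant after 21,000xg for 90 min was taken as soluble protein and measured by TMTpro 16plex LC-MS/MS with channel sums equalised. Thermal stability is reported relative to control samples, with values from duplicates. Fold changes are given on a log2 scale.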

[2] = compound: CC1=C(SC2=C1C(=N[C@H](C3=NN=C(N32)C)CC(=O)N)C4=CC=C(C=C4)Cl)C
Method in brief: as §1

[3] = compound: CC1=C2C(=CC=C1)N=C(N(C2=O)C3=CC=CC=C3C)CN4C=NC5=C(N=CN=C54)N
Method in brief: as §1

[4] = compound: Cc1sc2c(c1C)C(c1ccc(Cl)cc1)=N[C@@H](CC(=O)OC(C)(C)C)c1nnc(C)n1-2
Method in brief: as §1

[5] = compound: c1ccc([C@@H]2C[C@H]2NC2CCNCC2)cc1
Method in brief: as §1

Measured: log2 fold change

ATP6V0A1 (UniProt Q93050)
inactive: [1] 0.281

ATF3 (UniProt P18847)
inactive: [1] 0.004 | [2] 0.277 | [3] 0.021 | [4] 0.143 | [5] 0.097

ATP5MPL (UniProt P56378)
inactive: [1] 0.025 | [2] 0.088 | [3] 0.044 | [4] -0.078 | [5] 0.06

ATP1A1 (UniProt P05023)
inactive: [1] 0.009 | [2] 0.051 | [3] -0.045 | [4] 0 | [5] -0.01

ARMCX3 (UniProt Q9UH62)
inactive: [1] -0.16 | [2] -0.061 | [3] 0.305 | [4] -0.115 | [5] 0.041

ATP6V0A1 isoform 3 (UniProt Q93050)
inactive: [1] 0.115 | [2] -0.07 | [3] 0.005 | [4] -0.07 | [5] -0.149

ARL6IP5 (UniProt O75915)
inactive: [1] 0.029 | [2] 0.081 | [3] 0.032 | [4] -0.006 | [5] 0.002

ATP5MG (UniProt O75964)
inactive: [1] 0.013 | [2] 0.039 | [3] 0.058 | [4] -0.131 | [5] -0.086

ATP5F1D (UniProt P30049)
inactive: [1] 0.006 | [2] 0.07 | [3] 0.015 | [4] -0.044 | [5] -0.015

ATG3 (UniProt Q9NT62)
inactive: [1] 0.002 | [2] 0.01 | [3] 0.074 | [4] 0.016 | [5] 0.005

Two neighbouring records already listed, for reference:
ATP5F1D (UniProt P30049)
inactive: [1] 0.006 | [2] 0.07 | [3] 0.015 | [4] -0.044 | [5] -0.015

ATG3 (UniProt Q9NT62)
inactive: [1] 0.002 | [2] 0.01 | [3] 0.074 | [4] 0.016 | [5] 0.005

Following part:

ATP2B4 (UniProt P23634)
inactive: [1] 0.041 | [2] 0.066 | [3] 0.043 | [4] -0.01 | [5] 0.052

ATG2B (UniProt Q96BY7)
inactive: [1] -0.034 | [2] 0.035 | [3] 0.024 | [4] 0.027 | [5] 0.066

ATP23 (UniProt Q9Y6H3)
inactive: [1] -0.023 | [2] -0.031 | [3] -0.009 | [4] -0.052 | [5] -0.053

ASAP1 isoform 2 (UniProt Q9ULH1)
inactive: [1] -0.114 | [2] 0.025 | [3] 0.25 | [4] 0.102 | [5] 0.005

ATP6V1E1 (UniProt P36543)
inactive: [1] 0.001 | [2] 0.041 | [3] 0.031 | [4] -0.004 | [5] -0.086

ATM (UniProt Q13315)
inactive: [1] 0.031 | [2] 0.107 | [3] 0.066 | [4] -0.137 | [5] -0.006

ATP5PD (UniProt O75947)
inactive: [1] 0.058 | [2] 0 | [3] 0.023 | [4] -0.058 | [5] 0

ARL2BP (UniProt Q9Y2Y0)
inactive: [1] -0.076 | [2] 0 | [3] 0.14 | [4] 0.069 | [5] 0.017

ATG14 (UniProt Q6ZNE5)
inactive: [1] 0.175

ATPAF2 (UniProt Q8N5M1)
inactive: [1] 0.016 | [2] 0.053 | [3] 0.03 | [4] -0.084 | [5] 0.012

ARMC8 (UniProt Q8IUR7)
inactive: [1] 0.05 | [2] -0.005 | [3] 0 | [4] 0.021 | [5] 0.011

ATL2 (UniProt Q8NHH9)
inactive: [1] -0.019 | [2] 0.05 | [3] 0.091 | [4] -0.012 | [5] -0.077

ARL4A (UniProt P40617)
inactive: [1] -0.027

ASNSD1 (UniProt Q9NWL6)
inactive: [1] 0.201

ASF1A (UniProt Q9Y294)
inactive: [1] -0.012 | [2] 0.001 | [3] 0.069 | [4] -0.011 | [5] 0.04

ATG7 (UniProt O95352)
inactive: [1] -0.062 | [2] 0.039 | [3] 0.01 | [4] -0.022 | [5] -0.045

ATP5PO (UniProt P48047)
inactive: [1] 0.029 | [2] -0.027 | [3] -0.009 | [4] -0.029 | [5] 0.017
